This note sets out measurements from paper PMC12730314.

In this data set the test system is thrombin (human plasma) (Homo sapiens). The data set can be described thus: fluorescence anisotropy. To be noted: earlier work by the same group; Thrombin: TGK (192 mM Tris, 5 mM KH2PO4, 25 mM glycine hydrochloride; pH not stated) +/- 0.1% Tween 20, thrombin stock in 1 mg/mL BSA, 25 C, 40 min; native protein; folded or branched DNA.

The exact form of at least one protein or probe is not confirmed.

As for “AGTCCGTGGTAGGGCAGGTTGGGGTGACT [TR-labeled thrombin-binding 29mer]”, the Kd turned out to be 45.6 nM.
